Assay results published in the supplement of paper PMC12823440, “Inhibitors supercharge kinase turnover through native proteolytic circuits” (Nature, 2025).
Structures can show the parent of a compound that is named as a salt. This is one part of the list. The calls rarely recur for the same compound in another form.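 Kinases were expressed as nanoluciferase fusions in K562 cells and luminescence was read every 4 h between 2 and 18 h as percent of control, DMSO set to 100% and a positive control to 0%. A time point counts as decreased when the signal drops significantly (2 sigma). The hit call is the authors' own, does not follow from the count of time points alone, and its rule is not shown.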

The chains behind the UniProt entries cited, without tags or fusion partners. Where a name states a change or a piece, a line headed by the entry shows the natural chain unless it says otherwise.
UniProt P43403: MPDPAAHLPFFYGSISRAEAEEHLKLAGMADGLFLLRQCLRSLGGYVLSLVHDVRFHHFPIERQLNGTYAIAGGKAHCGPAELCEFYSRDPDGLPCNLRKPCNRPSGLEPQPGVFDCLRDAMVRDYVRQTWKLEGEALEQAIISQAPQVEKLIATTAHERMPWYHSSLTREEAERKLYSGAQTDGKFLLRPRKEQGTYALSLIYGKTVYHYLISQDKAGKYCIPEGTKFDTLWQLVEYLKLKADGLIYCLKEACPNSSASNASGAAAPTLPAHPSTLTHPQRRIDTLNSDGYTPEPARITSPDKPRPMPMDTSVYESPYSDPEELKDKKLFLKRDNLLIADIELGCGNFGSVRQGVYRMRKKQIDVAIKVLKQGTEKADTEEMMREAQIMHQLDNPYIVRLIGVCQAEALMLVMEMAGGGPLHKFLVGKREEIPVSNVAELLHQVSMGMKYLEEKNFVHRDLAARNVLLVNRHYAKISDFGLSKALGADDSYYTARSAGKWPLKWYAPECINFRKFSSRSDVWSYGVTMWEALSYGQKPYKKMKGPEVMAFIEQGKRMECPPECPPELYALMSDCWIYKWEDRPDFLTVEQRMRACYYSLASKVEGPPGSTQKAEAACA
UniProt P11802: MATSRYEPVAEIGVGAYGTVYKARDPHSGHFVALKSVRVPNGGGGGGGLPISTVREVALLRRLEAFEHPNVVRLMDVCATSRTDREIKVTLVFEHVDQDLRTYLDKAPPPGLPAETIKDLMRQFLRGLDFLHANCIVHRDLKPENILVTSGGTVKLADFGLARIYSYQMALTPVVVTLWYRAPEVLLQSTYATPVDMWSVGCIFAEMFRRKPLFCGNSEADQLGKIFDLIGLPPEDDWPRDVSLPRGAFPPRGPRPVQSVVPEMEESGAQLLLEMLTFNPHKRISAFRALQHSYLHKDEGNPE

What follows are compounds tested against ZAP70 (UniProt P43403) (assay: kinase-Nluc reporter destabilization hit call (1 = scored as downregulated) (binary); higher = compound decreases kinase abundance). Settings: 10 µM; K562; 2-18 h.

Question: With `CCS(=O)(=O)N1CC(CC#N)(n2cc(-c3ncnc4[nH]ccc34)cn2)C1` [Baricitinib (phosphate)] as the compound, how does the “kinase-Nluc reporter destabilization hit call” value read?
Answer: inactive: 0

Question: Which “kinase-Nluc reporter destabilization hit call” value does the source give for `FC(F)(F)c1ccc(CNc2ccc(Cc3c[nH]c4ncc(Cl)cc34)cn2)cn1` [Pexidartinib (hydrochloride)] here?
Answer: inactive: 0

Question: How did the “kinase-Nluc reporter destabilization hit call” value turn out when `O=C(Nc1cnn2ccc(N3CCC[C@@H]3c3cc(F)ccc3F)nc12)N1CC[C@H](O)C1` [Larotrectinib sulfate] was run?
Answer: inactive: 0

Question: Which “kinase-Nluc reporter destabilization hit call” value does the source give for `C[C@@H](N)c1ccc(C(=O)Nc2ccnc3[nH]ccc23)cc1` here?
Answer: inactive: 0

Question: `C[S+]([O-])c1ccc(-c2nc(-c3ccc(F)cc3)c(-c3ccncc3)[nH]2)cc1` (configuration not stated) was tested. Which “kinase-Nluc reporter destabilization hit call” value did it give?
Answer: inactive: 0

Question: With `CS(=O)(=O)N1CCN(Cc2cc3nc(-c4cccc5[nH]ncc45)nc(N4CCOCC4)c3s2)CC1` [Pictilisib (dimethanesulfonate)] as the compound, how does the “kinase-Nluc reporter destabilization hit call” value read?
Answer: inactive: 0

The compounds below were run against CDK4 (UniProt P11802) (assay: number of time points (of 4; 2 h point missing) at which kinase-Nluc abundance scored as decreased, DMSO-normalised (count); higher = more persistent destabilization). Settings: 2.5 µM; K562; 2-18 h.

Question: With `C=CC(=O)Nc1cc(Nc2nccc(-c3cn(C)c4ccccc34)n2)c(OC)cc1N(C)CCN(C)C` [Osimertinib mesylate] as the compound, how does the “number of time points” value read?
Answer: 0

Question: How did the “number of time points” value turn out when `Cc1cccc(-c2[nH]c(CNc3ccccc3F)nc2-c2ccc3ncnn3c2)n1` [Vactosertib (Hydrochloride)] was run?
Answer: 0

Question: How did the “number of time points” value turn out when `CC(C)Oc1ccc(-c2nn([C@@H](C)c3oc4ccc(F)cc4c(=O)c3-c3cccc(F)c3)c3ncnc(N)c23)cc1F` [Umbralisib (hydrochloride)] was run?
Answer: 0

Question: Which “number of time points” value does the source give for `COc1ccc(S(=O)(=O)Nc2ccccc2CN(C)C/C=C/c2ccc(Cl)cc2)cc1` [KN-92 (phosphate)] here?
Answer: 0

Question: Which “number of time points” value does the source give for `CN(C)C(=O)c1cc2cnc(Nc3ccc(N4CCNCC4)cn3)nc2n1C1CCCC1` [Ribociclib succinate hydrate] here?
Answer: 0

Question: How did the “number of time points” value turn out when `C=CC(=O)Nc1cc2c(Nc3ccc(F)c(Cl)c3)ncnc2cc1C#CC(C)(C)N1CCN(C)CC1` was run?
Answer: 0

Question: `Cc1cccc(/C=N/Nc2cc(N3CCOCC3)nc(OCCc3ccccn3)n2)c1` [Apilimod] was tested. Which “number of time points” value did it give?
Answer: 0

Question: How did the “number of time points” value turn out when `COc1cc2c(Oc3ccc4[nH]c(C)cc4c3F)ncnc2cc1OCCCN1CCCC1` [Cediranib] was run?
Answer: 0

Question: For `Cc1cc(Nc2ncc(Cl)c(Nc3ccccc3S(=O)(=O)C(C)C)n2)c(OC(C)C)cc1C1CCNCC1` [Ceritinib dihydrochloride], which “number of time points” value is on record?
Answer: 0

Question: `Nc1ncnc2c1c(-c1ccc(Oc3ccccc3)cc1)nn2[C@@H]1CCCNC1` was tested. Which “number of time points” value did it give?
Answer: 0

Question: `CNC(=O)c1cc(Oc2ccc(NC(=O)Nc3ccc(Cl)c(C(F)(F)F)c3)c(F)c2)ccn1` [Regorafenib] was tested. Which “number of time points” value did it give?
Answer: 0
